Test results from PubChem BioAssay AID2417 (National Center for Advancing Translational Sciences (NCATS), 2010).
Hit rate of the full screen: of about 140,000 compounds, about 4,300 (3.1%) were called active. Inconclusive results, whose numbers are uncertain, are shown with a selection of clear calls.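 The calls were made as follows: active = readout at or below -70, meaning at least 70% loss of cells showing the perinucleolar compartment, a nuclear body marking cancer cells; inconclusive = readout between -30 and a set limit; inactive = the rest.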

Test: High Content Assay for Compounds that inhibit the Assembly of the Perinucleolar Compartment;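 also: plate controls were DMSO wells for no effect and camptothecin positive control wells for full effect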
Conditions: PC3M PTB-GFP, PNC prevalence imaging, 16 h; at 10 µM; active compounds read low
How it was run: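 Compounds are pinned in duplicate onto adhered PC3M cells stably expressing GFP-tagged PTB and incubated 16 h at 37 C. Cells are then fixed, nuclei stained with Hoechst, and PNC-positive cells counted.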

Row | SMILES | activity change (PNC), negative = inhibition
1 | CCc1ccccc1NCC(=O)Nc1ccccc1C(=O)OC | inactive: -16.8%
2 | COc1cccc(C(c2sc3nc(C)nn3c2O)N2CCN(c3ccccc3F)CC2)c1 (stereo not drawn) | inconclusive: -40.2%
3 | O=S(=O)(Nc1ccc(S(=O)(=O)N2CCOCC2)cc1)c1ccccc1 | inactive: -10%
4 | O=C(O)c1cnn2c1NC(c1ccc(F)cc1)CC2C(F)(F)F (stereo not drawn) | inconclusive: -67.3%
5 | CC1CCN(CC(=O)NC(=O)NCc2ccccc2)CC1 | inconclusive: -30.5%
6 | O=C(Nc1ccc(CN2CCOCC2)cc1)c1ccc(-c2cc(Cl)ccc2Cl)o1 | inactive: -2.88%
7 | Cc1ccc(CSCC(=O)N2CCN(c3ccc(F)cc3)CC2)cc1 | inactive: -2.93%
8 | CCn1c(SCC(=O)Nc2ccc3c(c2)oc2ccccc23)nnc1-c1ccc(N)cc1 | inconclusive: -43.3%
9 | Nc1c(C(=O)Nc2ccccc2)sc2nc3c(c(-c4ccco4)c12)CCC3 | inactive: 23.7%
10 | S=c1[nH]nc(-c2ccccc2)n1/N=C/c1ccc(-c2ccccc2Cl)o1 | active: -100%
11 | CCCCOC(=O)n1c(=O)oc2cc(S(=O)(=O)N3CCCCC3)ccc21 | inconclusive: -66.2%
12 | COc1cc(/C=C2\SC(c3ccc(C)cc3)=NC2=O)ccc1O | active: -94.9%
13 | O=C1CN(C(=O)c2ccccc2F)c2ccccc2N1 | inconclusive: -36.3%
14 | COc1ccc(CCNC(=O)Cn2cnc3c(nnn3Cc3ccccc3F)c2=O)cc1OC | active: -119%
15 | COc1ccccc1C(=O)NCC1CCN(c2ccc(S(=O)(=O)N3CCOCC3)cc2)CC1 | inconclusive: -36.8%
16 | COc1ccccc1NS(=O)(=O)c1cc(C)ccc1C | inconclusive: -37.7%
17 | COc1ccc(/C=C/C(=O)Nc2nc(C)cc(C)n2)cc1OC | inconclusive: -65.7%
18 | CC1(C)N=C(N)NC(Nc2ccc(Br)cc2)=N1 | inconclusive: -45.8%
19 | C=CCc1ccc(OCCOCCOc2ccccc2[N+](=O)[O-])c(OC)c1 | inactive: -24.9%
20 | CCCCSc1nc2[nH]ncc2c(=O)[nH]1 | inconclusive: -48.6%
21 | CCN1/C(=C/c2ccc3cccc(C)c3[n+]2CC)Sc2ccccc21 | inconclusive: -35.4%
22 | CCOC(=O)CCCCC(=O)c1[nH]c(=O)[nH]c1CSc1nc(-c2ccccc2)c(C#N)c(=O)[nH]1 | inactive: 44.7%

Row | SMILES | activity change (PNC), negative = inhibition
23 | O=C(CCSCCc1ccncc1)NCCCN1CCOCC1 | inconclusive: -53.1%
24 | CCOc1ccc(N2C(=O)CC(SC(=NC)Nc3ccc(F)cc3)C2=O)cc1 (stereo not drawn) | active: -100%
25 | CCOC(=O)n1n[n+]([O-])c2ccccc21 | inconclusive: -30.7%
26 | COc1ccc(Oc2nnc(-c3ccc(C)cc3)c3ccccc23)cc1 | inconclusive: -41.7%
27 | CC(C)NC(=O)CSCc1c(F)cccc1Cl | inactive: -6.83%
28 | O=S(=O)(Nc1ccc(Cc2ccncc2)cc1)c1ccc(Cl)s1 | inconclusive: -34.5%
29 | OC(CSc1c(Cl)cccc1Cl)CN1CCN(c2ccccc2F)CC1 (stereo not drawn) | inconclusive: -54.8%
30 | CCOC(=O)c1nn(-c2ccc(C)cc2)c2nc(Nc3ccccc3)cc(=O)n12 | inconclusive: -36.9%
31 | Clc1ccc(NNc2ccnc3cc(Cl)ccc23)cc1 | inactive: -13.6%
32 | COc1ccc(S(=O)(=O)NC(CC(=O)O)c2ccco2)cc1 (stereo not drawn) | inconclusive: -53.8%
33 | Cc1ccc(NC2c3ncccc3C(=O)N2Cc2ccc(F)cc2)cc1 (stereo not drawn) | inactive: 4.47%
34 | COCc1cc(C)nc2sc3c(=O)n(Cc4ccco4)nnc3c12 | inconclusive: -52.6%
35 | O=c1c2ccccc2nc(SCc2nc3ccccc3s2)n1CCCO | inconclusive: -70.9%
36 | COc1ccc(C2C(C(=O)O)CC(=O)N2C2CCCCC2)cc1 (stereo not drawn) | inconclusive: -30.8%
37 | O=C(CN1CCCCC1)NCCNc1ccc(C(F)(F)F)cc1[N+](=O)[O-] | inactive: 12.9%
38 | Cc1ccccc1CNC(=O)c1ccccc1C(=O)O | inactive: -9.76%
39 | CC(=O)CC(C)(C)S(=O)(=O)c1ccc(NC(C)=O)cc1 | inconclusive: -48.6%
40 | NC(=O)[C@@H]1CCCNc2c(F)cc([N+](=O)[O-])cc2C(=O)N[C@@H](CO)C(=O)N[C@@H](Cc2ccc(O)cc2)C(=O)N1 | inconclusive: -31.2%
41 | Cc1cc(C)nc(N/C(=N\S(=O)(=O)Cc2ccccc2)Nc2ccc(F)c(Cl)c2)n1 | inactive: -29.6%
42 | CCN(CCCNC(=O)CNC(=O)Cn1cnc2ccccc2c1=O)c1cccc(C)c1 | inconclusive: -42.7%
43 | Nc1sccc1C(=O)c1ccccc1 | inconclusive: -37.9%
44 | COc1ccccc1/C=C/C(=O)N1CCCC1 | inconclusive: -30.5%

Already shown: entries from further up.
Row | SMILES | activity change (PNC), negative = inhibition
4 | O=C(O)c1cnn2c1NC(c1ccc(F)cc1)CC2C(F)(F)F (stereo not drawn) | inconclusive: -67.3%
5 | CC1CCN(CC(=O)NC(=O)NCc2ccccc2)CC1 | inconclusive: -30.5%

(further entries)

Row | SMILES | activity change (PNC), negative = inhibition
45 | Cc1cc(OC(=O)c2cccs2)ccc1C(C)C | inconclusive: -30.6%
46 | COc1ccc(NC(=O)c2ccccc2NS(=O)(=O)c2ccc(C)cc2)c([N+](=O)[O-])c1 | inconclusive: -48.4%
47 | O=S(=O)(Nc1ccc(Cl)c(C(F)(F)F)c1)c1cnc[nH]1 | inactive: -12.3%
48 | CCOC(=O)C1=C(C)NC(=O)NC1c1ccc(Br)s1 (stereo not drawn) | inconclusive: -31.2%
49 | CCOC(=O)c1ccc(CSc2nnc(C)n2N)o1 | inconclusive: -30.8%
50 | O=C(/C=C\c1ccc2c(c1)OCO2)NC1(C(=O)Nc2ccc3c(c2)OCCO3)CCCCC1 | inconclusive: -60.8%
51 | COc1cc(NC(=O)c2cccnc2Sc2ccc(Cl)cc2)cc(OC)c1OC | inconclusive: -39.1%
52 | CCN(CC)CCNC1=CC(=O)OC12CCCCC2 | inactive: -24.9%
53 | O=C(OCC1OC(n2cnc3c(N(C(=O)c4ccccc4)C(=O)c4ccccc4)ncnc32)C(O)C1F)c1ccccc1 (stereo not drawn) | inconclusive: -39.5%
54 | COC(=O)[C@@H]1CC[C@H](C)[C@@H](c2ccc(C)cc2)N1C(=O)c1ccc(/C=N/OC[C@@H](O)COCc2ccco2)cc1 | inconclusive: -59.5%
55 | O=C(Cc1ncc(C(F)(F)F)cc1Cl)Nc1cccc(Br)c1 | inconclusive: -35.9%
56 | COc1cc(CCC(=O)OCn2nnc3ccccc3c2=O)cc(OC)c1OC | inconclusive: -43.8%
57 | CC(C)c1nc2n[nH]c(N)c2c2c1CCC2 | inconclusive: -38%
58 | CCOC(=O)c1c(-c2ccccc2)csc1NC(=O)COc1ccc2c(C)cc(=O)oc2c1 | inactive: 16.3%
59 | O=C(Nc1ccc2c(c1)OCCO2)C1CCN(C(=O)c2ccccc2)CC1 | active: -105%
60 | CCn1c(CSc2nc(C)cc(C)n2)nnc1SCC(=O)Nc1ccccc1 | inconclusive: -37.1%
61 | S=C(c1ccc(N2CCOCC2)cc1)N1CCCCC1 | inactive: 335%
62 | COC(=O)c1ccc(Cn2cnc3c(cnn3-c3ccc(F)cc3)c2=O)o1 | inconclusive: -64.5%
63 | O=C(Nc1ccccc1-c1ccccc1)c1ccc(Cl)c([N+](=O)[O-])c1 | inconclusive: -58.5%
64 | Cc1nc(=O)c(-c2ccccc2)c(C)n1CCO | inconclusive: -66.8%
65 | CCCCCn1c(Sc2ncccn2)nc2c1c(=O)[nH]c(=O)n2C | inactive: 186%
66 | Cc1ccc(Cn2nnc3c(=O)[nH]c(C(=O)NCc4ccco4)nc32)cc1 | inactive: 31.5%

Quoted from the listing:
Entry for Cc1ccc(NC2c3ncccc3C(=O)N2Cc2ccc(F)cc2)cc1 (stereo not drawn) under activity change (PNC), negative = inhibition: inactive: 4.47%
Entry for CC1CCN(CC(=O)NC(=O)NCc2ccccc2)CC1 under activity change (PNC), negative = inhibition: inconclusive: -30.5%
Entry for COc1ccc(/C=C/C(=O)Nc2nc(C)cc(C)n2)cc1OC under activity change (PNC), negative = inhibition: inconclusive: -65.7%

(further entries)

Row | SMILES | activity change (PNC), negative = inhibition
67 | C/C(=N\NC(=O)COc1ccc(C)cc1C(C)C)c1ccc(-n2ccnc2)cc1 | inactive: -22.2%
68 | C=CCn1c(NCc2ccc(N(C)C)cc2)nc2ccccc21 | inconclusive: -51.4%
69 | CCN(CC(=O)Nc1ccc2c(c1)OC(F)(F)O2)Cc1nc2ccccc2c(=O)[nH]1 | inconclusive: -35%
70 | Cc1ccccc1N1CCN(CCCN2C(=O)CC(=C(c3ccccc3)c3ccccc3)C2=O)CC1 | inactive: 20.6%
71 | COc1cccc(C(O)c2cnc(C(C)C)n2C)c1OC (stereo not drawn) | inconclusive: -32.9%
72 | Cc1cc(SCC(=O)c2cc3ccccc3o2)nc2ccccc12 | inconclusive: -41.4%
73 | Cc1ccc(Cl)cc1NC(=O)Cn1cccc1 | inactive: 20.4%
74 | CC(=O)c1cccc(NC(=O)C2CCCN(S(=O)(=O)c3ccccc3)C2)c1 (stereo not drawn) | inconclusive: -36.8%
75 | N#CC(Nc1ccccc1)c1ccccc1OCc1ccccc1 (stereo not drawn) | inactive: -6.33%
76 | Cc1cccc(NC(=O)CSc2nc3nc(C)cc(C)c3c(=O)[nH]2)c1 | inconclusive: -37%
77 | CN(C)CCCN1C(=O)c2cccc3c([N+](=O)[O-])ccc(c23)C1=O | inconclusive: -62.5%
78 | CCCn1c(=O)c2ccccc2n2c(SCCOc3ccccc3)nnc12 | inconclusive: -40.9%
79 | CCN(CC)S(=O)(=O)c1cc(NC(=O)CCNC(=O)c2ccccc2Cl)ccc1C | inactive: 20.2%
80 | CCOC(=O)Cc1csc(NC(=O)c2ccc(S(=O)(=O)N3CCCCC3)cc2)n1 | inconclusive: -35.3%
81 | CC(C(=O)NCCN1C(=O)S/C(=C\c2cccnc2)C1=O)N1C(=O)c2ccccc2C1=O (stereo not drawn) | active: -105%
82 | CC(C)n1c(O)c(/C=C2\C=Nc3ccccc32)sc1=Nc1ccccc1 | inconclusive: -30.9%
83 | Cc1ccc(-n2c(SCC(=O)c3c(N)n(C)c(=O)n(C)c3=O)nc3sc4c(c3c2=O)CCCC4)c(C)c1 | inconclusive: -59%
84 | Cc1ccc(S(=O)(=O)Nc2ccc(NC(=O)CN3CCCCC3)c(Cl)c2)cc1 | inconclusive: -36.3%
85 | Cc1ccc(NC(=S)NNC(=O)CCn2cc(C)cn2)cc1 | inactive: 4.71%
86 | Cc1ccc2nc(N3C(=O)C(O)=C(C(=O)c4cc5ccccc5o4)C3c3cccs3)sc2c1 (stereo not drawn) | inconclusive: -32.5%
87 | CC(=O)Oc1ccc(-c2cccc(C(=O)OCC(=O)Nc3ccccc3Oc3ccccc3)c2)cc1 | inconclusive: -35.6%
88 | CCOc1ccccc1CNC(=O)CCCc1cn(C)c2ccccc12 | inconclusive: -35.4%
